From paper PMC4297356 come the findings set out here.

In this assay the target is T1, Vipp1–GFP (Synechocystis Vipp1 tagged with green fluorescent protein at the C-terminus) (Synechocystis sp. PCC6803) (UniProt Q55707).
T1 sequence: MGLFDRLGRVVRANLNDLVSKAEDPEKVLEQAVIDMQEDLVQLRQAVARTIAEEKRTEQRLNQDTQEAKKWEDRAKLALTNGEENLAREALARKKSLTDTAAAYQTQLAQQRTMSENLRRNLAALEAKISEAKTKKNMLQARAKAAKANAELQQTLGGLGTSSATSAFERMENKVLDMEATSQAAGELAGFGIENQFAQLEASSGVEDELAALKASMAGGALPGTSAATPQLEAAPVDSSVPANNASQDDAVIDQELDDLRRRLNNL
The assay can be described thus: co-IP; anti-GFP microbeads (μMACS column) on lysates of HL-treated Synechocystis vipp1–gfp, futA1–gfp and wild-type cells; GFP affinity-bound fraction immunoblotted.

These are yes or no findings as the source states them, for the method shown. In cells and extracts the contact can be indirect. Sequences can lack the tags named with a protein.

Consider Slr1768 protein, for which the binding result is listed as “no binding”.
